Experiment [1] deals with T1, HA-DAP5 (UniProt P78344).
T1 sequence: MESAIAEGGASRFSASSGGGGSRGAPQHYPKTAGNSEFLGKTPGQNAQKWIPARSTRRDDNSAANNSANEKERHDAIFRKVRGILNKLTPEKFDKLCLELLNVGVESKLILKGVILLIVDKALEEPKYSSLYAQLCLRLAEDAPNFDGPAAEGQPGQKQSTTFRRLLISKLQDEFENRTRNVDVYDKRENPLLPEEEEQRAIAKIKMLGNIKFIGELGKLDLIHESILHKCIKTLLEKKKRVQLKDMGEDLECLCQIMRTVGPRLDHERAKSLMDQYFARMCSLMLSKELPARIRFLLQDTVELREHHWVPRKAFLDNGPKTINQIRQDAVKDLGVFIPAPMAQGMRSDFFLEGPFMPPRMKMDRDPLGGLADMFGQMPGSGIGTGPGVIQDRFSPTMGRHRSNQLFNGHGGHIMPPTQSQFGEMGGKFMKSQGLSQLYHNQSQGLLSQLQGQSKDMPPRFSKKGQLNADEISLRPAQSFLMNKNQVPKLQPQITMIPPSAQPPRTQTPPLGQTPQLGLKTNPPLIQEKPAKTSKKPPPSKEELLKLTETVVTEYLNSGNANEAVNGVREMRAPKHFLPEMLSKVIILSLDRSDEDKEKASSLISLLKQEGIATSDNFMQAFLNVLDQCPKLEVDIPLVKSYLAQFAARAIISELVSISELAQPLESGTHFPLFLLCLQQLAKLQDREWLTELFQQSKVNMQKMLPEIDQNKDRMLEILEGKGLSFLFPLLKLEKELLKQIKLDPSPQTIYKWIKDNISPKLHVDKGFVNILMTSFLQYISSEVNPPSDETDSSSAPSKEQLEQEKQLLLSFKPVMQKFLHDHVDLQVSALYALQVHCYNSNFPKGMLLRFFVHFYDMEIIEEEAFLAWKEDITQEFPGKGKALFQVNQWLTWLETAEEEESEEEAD
As to the kind of experiment: co-IP; IP of HA-DAP5, HA-eIF4GI or HA-eIF4GII from transfected MDA-MB-231 lysate (50 mM TrisHCl pH 7.5, 150 mM NaCl, 0.5% NP-40, Benzonase, RNase A), immunoblot of interacting proteins. Background: Immunoblotting shows a protein as a band on a membrane.

Amino acid sequences for entries named in this document (tags omitted).
UniProt P51116: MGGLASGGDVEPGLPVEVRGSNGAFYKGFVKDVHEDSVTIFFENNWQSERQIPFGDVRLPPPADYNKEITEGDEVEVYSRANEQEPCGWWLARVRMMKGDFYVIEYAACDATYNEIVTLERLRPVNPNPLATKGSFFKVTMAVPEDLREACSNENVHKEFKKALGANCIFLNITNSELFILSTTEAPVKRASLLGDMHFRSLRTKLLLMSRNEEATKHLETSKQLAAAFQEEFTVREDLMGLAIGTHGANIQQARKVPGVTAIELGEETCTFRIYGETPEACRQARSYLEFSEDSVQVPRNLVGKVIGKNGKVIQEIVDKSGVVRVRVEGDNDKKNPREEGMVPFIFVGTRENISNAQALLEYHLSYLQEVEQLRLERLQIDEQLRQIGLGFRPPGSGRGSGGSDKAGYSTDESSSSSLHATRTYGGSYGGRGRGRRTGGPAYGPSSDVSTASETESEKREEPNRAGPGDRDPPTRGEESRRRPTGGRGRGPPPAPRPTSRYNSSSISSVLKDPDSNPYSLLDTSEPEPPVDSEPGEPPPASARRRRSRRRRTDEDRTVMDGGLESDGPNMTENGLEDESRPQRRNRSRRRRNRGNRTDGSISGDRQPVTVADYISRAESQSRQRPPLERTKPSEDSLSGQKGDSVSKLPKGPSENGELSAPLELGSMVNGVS
UniProt O15371: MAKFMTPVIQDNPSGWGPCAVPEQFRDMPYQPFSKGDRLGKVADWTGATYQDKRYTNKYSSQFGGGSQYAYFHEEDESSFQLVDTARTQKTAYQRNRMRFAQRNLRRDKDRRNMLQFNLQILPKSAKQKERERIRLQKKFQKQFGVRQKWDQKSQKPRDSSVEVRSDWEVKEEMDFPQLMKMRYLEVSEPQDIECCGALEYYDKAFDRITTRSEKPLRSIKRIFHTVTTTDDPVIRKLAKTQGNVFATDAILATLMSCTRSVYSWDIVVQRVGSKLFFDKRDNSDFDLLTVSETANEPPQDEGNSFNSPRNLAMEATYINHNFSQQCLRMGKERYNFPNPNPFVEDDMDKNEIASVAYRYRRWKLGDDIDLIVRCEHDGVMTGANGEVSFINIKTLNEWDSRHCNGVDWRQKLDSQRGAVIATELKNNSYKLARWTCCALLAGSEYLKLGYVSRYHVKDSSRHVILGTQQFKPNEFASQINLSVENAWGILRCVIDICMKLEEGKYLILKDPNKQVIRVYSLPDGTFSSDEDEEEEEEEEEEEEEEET
UniProt P51114: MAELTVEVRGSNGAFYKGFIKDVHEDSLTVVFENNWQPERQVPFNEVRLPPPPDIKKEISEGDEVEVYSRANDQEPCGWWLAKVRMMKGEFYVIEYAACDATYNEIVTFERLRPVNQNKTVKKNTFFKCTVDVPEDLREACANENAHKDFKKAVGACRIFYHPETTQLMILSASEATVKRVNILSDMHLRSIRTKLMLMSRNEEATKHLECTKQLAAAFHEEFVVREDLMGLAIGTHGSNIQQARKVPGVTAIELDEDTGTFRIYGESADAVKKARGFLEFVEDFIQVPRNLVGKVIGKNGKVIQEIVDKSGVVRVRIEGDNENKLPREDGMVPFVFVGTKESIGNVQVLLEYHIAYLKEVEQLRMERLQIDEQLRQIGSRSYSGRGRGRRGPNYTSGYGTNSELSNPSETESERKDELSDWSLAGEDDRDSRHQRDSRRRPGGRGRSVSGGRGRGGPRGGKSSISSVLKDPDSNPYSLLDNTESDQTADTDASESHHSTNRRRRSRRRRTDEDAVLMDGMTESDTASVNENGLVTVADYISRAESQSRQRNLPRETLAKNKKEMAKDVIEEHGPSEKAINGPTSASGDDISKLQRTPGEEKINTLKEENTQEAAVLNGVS

Experiment [2] has as its target T1, HA-DAP5. Briefly: cross-linking; live cells incubated with 0.6 mM BS3 for 30 min at room temperature, quenched with Tris, then lysis, IP of HA-DAP5 and immunoblot (anti-DAP5, then anti-eIF3d) on SDS-denaturing gel.

Results are given in words; binding and its absence hold for the method and conditions named. Binding seen in cells or lysates may run through a third protein. Some results given as binding are weak or reduced against the parent protein; the word gives no strength. Sequences can lack the tags named with a protein.

Turning to FXR2 (from UniProt P51116 1-673), the binding result with HA-DAP5 [1] is given as “binds”.

With eIF3d (from UniProt O15371 1-548), the binding result in the experiment with HA-DAP5 [1] and with HA-DAP5 [2] was “binds” throughout.

For the substance FXR1 (from UniProt P51114 1-621), the binding entry with HA-DAP5 [1] is “binds”.

These data come from article PMC6076257.
